Test results: paper PMC10352137, “Readout of histone methylation by Trim24 locally restricts chromatin opening by p53” (Nature Structural & Molecular Biology, 2023)

Protein sequences, listed by entry. Tags and fused reporters are not part of them.
UniProt P02340: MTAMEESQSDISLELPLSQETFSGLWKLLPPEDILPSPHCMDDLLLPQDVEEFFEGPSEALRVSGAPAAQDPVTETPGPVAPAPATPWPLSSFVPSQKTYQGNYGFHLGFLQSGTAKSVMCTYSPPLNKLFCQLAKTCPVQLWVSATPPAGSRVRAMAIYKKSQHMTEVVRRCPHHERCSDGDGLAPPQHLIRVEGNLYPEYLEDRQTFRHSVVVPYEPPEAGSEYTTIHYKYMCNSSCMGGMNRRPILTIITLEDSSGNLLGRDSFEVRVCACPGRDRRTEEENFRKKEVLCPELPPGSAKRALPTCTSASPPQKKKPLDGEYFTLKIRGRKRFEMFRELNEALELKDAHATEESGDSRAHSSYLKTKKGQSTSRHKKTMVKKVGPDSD

Target: V5- and dTAG-tagged p53 (dp53 allele) (mouse) (UniProt P02340)
Experiment: affinity purification with mass spectrometry; anti-V5 magnetic beads on whole-cell extracts of dp53 mES cells cross-linked with 0.1% formaldehyde; lysis in 1% SDS with benzonase, washes with 500 mM NaCl, 1% Triton X-100, 0.1% SDS; untreated and doxorubicin-activated cells, against p53-degraded cells (dTAG13) as mock

- binding: binds
B1: Trim24 (endogenous, mES cells) (protein, UniProt Q64127 1-1051)
chain: MEVAVEKAAAAAAPAGGPAAAAPSGENEAESRQGPDSESGGEASRLNLLDTCAVCHQNIQSRVPKLLPCLHSFCQRCLPAPQRYLMLTAPALGSAETPPPAPAPAPAPGSPAGGPSPFATQVGVIRCPVCSQECAERHIIDNFFVKDTTEVPSSTVEKSNQVCTSCEDNAEANGFCVECVEWLCKTCIRAHQRVKFTKDHTVRQKEEVSPEAVGVTSQRPVFCPFHKKEQLKLYCETCDKLTCRDCQLLEHKEHRYQFIEEAFQNQKVIIDTLITKLMEKTKYIKYTGNQIQNRIIEINQNQKQVEQDIKVAIFTLMVEINKKGKALLHQLESLAKDHRMKLMQQQQEVAGLSKQLEHVMHFSKWAVSSGSSTALLYSKRLITYRLRHLLRARCDASPVTNTTIQFHCDPSFWAQNIINLGSLVIEDKESQPQMPKQNPVVEQSSQPPGGLPSNQLSKFPTQISLAQLRLQHIQQQVMAQRQQVQRRPAPVGLPNPRMQGPIQQPSISHQHPPPRLINFQNHSPKPNGPVLPPYPQQLRYSPSQNVPRQTTIKPNPLQMAFLAQQAIKQWQISSVQAPPTTASSSSSTPSSPTITSAAGYDGKAFSSPMIDLSAPVGGSYNLPSLPDIDCSSTIMLDNIARKDTGVDHAQPRPPSNRTVQSPNSSVPSPGLAGPVTMTSVHPPIRSPSASSVGSRGSSGSSSKPAGADSTHKVPVVMLEPIRIKQENSGPPENYDFPVVIVKQESDEESRPQNTNYPRSILTSLLLNSSQSSASEETVLRSDAPDSTGDQPGLHQENSSNGKSEWSDASQKSPVHVGETRKEDDPNEDWCAVCQNGGELLCCEKCPKVFHLTCHVPTLTNFPSGEWICTFCRDLSKPEVDYDCDVPSHHSEKRKSEGLTKLTPIDKRKCERLLLFLYCHEMSLAFQDPVPLTVPDYYKIIKNPMDLSTIKKRLQEDYCMYTKPEDFVADFRLIFQNCAEFNEPDSEVANAGIKLESYFEELLKNLYPEKRFPKVEFRHEAEDCKFSDDSDDDFVQPRKKRLKSTEDRQLLK

These are yes or no findings as the source states them, for the method shown. In cells and extracts the contact can be indirect. Here binding means that the protein was enriched with, or labelled near, the bait; the list need not be complete.
